{"source": "paper PMC3755965", "about": "“A Small Peptide with Therapeutic Potential for Inflammatory Acne Vulgaris” (PLoS ONE, 2013)", "key": {"P. acnes ATCC11827": {"tested_on": "P. acnes ATCC11827", "conditions": "BHI broth, anaerobic, 37°C, 72 h, A600; mean of three independent experiments in duplicates; ND = no detectable activity", "method": "(§1) The strains of P. acnes were cultured in brain heart infusion (BHI) broth (HKM, Guangzhou, China) with 1% glucose at 37°C under an anaerobic atmosphere using MGC Anaeropack systems (Mitsubishi, Gas Chemical Co., Inc, Japan), respectively. […] S. epidermidis (09A3726 and 09B2490) and S. aureus (ATCC 2592) were grown in LB (Luria-Bertani) broth as our previous report.\n(§2) Briefly, samples were prepared as a stock solution in 0.9% salt water at a series of concentration. 890 µl special broth (BHI broth for P. acnes, LB broth for S. epidermidis and S. aureus), 100 µl bacterial suspension (10^8 CFU/ml) and 10 µl test sample were put together in the test tube under anaerobic conditions at 37°C for 72 h for P. acnes and under aerobic conditions at 37°C for 24 or 48 h for S. epidermidis and S. aureus. An absorbance at 600 nm was measured by a microplate reader to estimate bacterial growth. The MIC was defined as the lowest concentration of test sample completely inhibiting microorganism’s growth."}, "P. acnes ATCC6919": {"tested_on": "P. acnes ATCC6919", "conditions": "BHI broth, anaerobic, 37°C, 72 h, A600; mean of three independent experiments in duplicates; ND = no detectable activity", "method": "as §1, §2"}, "S. epidermidis 09A3726": {"tested_on": "S. epidermidis 09A3726", "conditions": "LB broth, aerobic, 37°C, 24 or 48 h, A600; mean of three independent experiments in duplicates; ND = no detectable activity", "method": "as §1, §2"}, "S. epidermidis 09B2490": {"tested_on": "S. epidermidis 09B2490", "conditions": "LB broth, aerobic, 37°C, 24 or 48 h, A600; mean of three independent experiments in duplicates", "method": "as §1, §2"}, "S. aureus 09B2499": {"tested_on": "S. aureus 09B2499", "conditions": "LB broth, aerobic, 37°C, 24 or 48 h, A600; mean of three independent experiments in duplicates"}}, "data": [{"smiles": "CCC[C@@H]1C[C@@H](C(=O)N[C@@H]([C@H]2O[C@H](SC)[C@H](OP(=O)(O)O)[C@@H](O)[C@H]2O)[C@H](C)Cl)N(C)C1", "note": "[clindamycin, clindamycin phosphate]", "values": [{"measurement": "MIC", "setting": "P. acnes ATCC11827", "value": 2.3, "unit": "µg/mL"}, {"measurement": "MIC", "setting": "P. acnes ATCC6919", "value": 2.3, "unit": "µg/mL"}, {"measurement": "MIC", "setting": "S. epidermidis 09A3726", "value": "no activity"}, {"measurement": "MIC", "setting": "S. epidermidis 09B2490", "value": 1.2, "unit": "µg/mL"}, {"measurement": "MIC", "setting": "S. aureus 09B2499", "value": 1.2, "unit": "µg/mL"}]}]}
